Test results from PubChem BioAssay AID540256 (National Center for Advancing Translational Sciences (NCATS), 2011).
About 3,700 (1.2%) of roughly 300,000 compounds were called active. The inconclusive results got no clear call from the source; some entries with a clear call stand among them for comparison. Calls come from the whole dose curve; tested in HEK293 cells. A potency beside an inconclusive call is a rough fit, not a confirmed value.

Assay: qHTS for Inhibitors of binding or entry into cells for Lassa Virus; note: nearly all actives have a fitted effect of over 50% in size
Settings: Lassa virus pseudotype entry inhibition, cell reporter; series mostly up to 37.9 µM
Potency is the fitted concentration of half-maximal effect.

Compound	Potency
COC(=O)c1cc(NC(=O)Cn2nc(C)n3cccc3c2=O)cc(C(=O)OC)c1	inconclusive: 31.6 µM [activator, single point]
CCC(C)NC(=O)c1ccc(-n2c(-c3ccccc3)cc3c2CCCC3)cc1 (configuration not stated)	inconclusive: 35.5 µM [inhibitor, single point]
Cc1cccc(C)c1NC(=O)CN(C)C(=O)Cc1cccc(C(F)(F)F)c1	inconclusive: 1.26 µM [inhibitor, single point]
CSc1cccc(CN2CCC(Oc3cccc(C(=O)N4CCCC4)c3)CC2)c1	inconclusive: 35.5 µM [inhibitor, single point]
COc1ccccc1C(=O)NCC1CCN(c2ccc(S(=O)(=O)N3CCOCC3)cc2)CC1	inactive
CCn1c(Nc2ccccc2Cl)nc2ccccc21	inactive
COc1cc(/C=C2\SC(c3ccc(C)cc3)=NC2=O)ccc1O	inconclusive: 11.6 µM [inhibitor, partial curve, poor fit]
CC1(C)Cc2cccc(Oc3ccc(S(=O)(=O)N4CCCCC4)cn3)c2O1	inactive
CCCCOC(=O)n1c(=O)oc2cc(S(=O)(=O)N3CCCCC3)ccc21	inconclusive: 0.82 µM [inhibitor, partial curve, poor fit]
Cc1ccc(CSc2nc3ccc(NC(=O)C(C)C)cc3s2)cc1	inactive
O/N=C/Cc1[nH]c2ccccc2c1-c1ccccc1	inconclusive: 10 µM [inhibitor, partial curve]
CC(C(=O)NCc1ccco1)n1cc(C(=O)c2ccco2)c2ccccc21 (configuration not stated)	inactive
CCNC(=S)N/N=C/c1cn(Cc2ccccc2F)c2ccccc12	inconclusive: 17.8 µM [inhibitor, partial curve, poor fit]
CCc1nn2c(=O)c(S(=O)(=O)Nc3ccc(OC)c(Cl)c3)c(C)nc2s1	inactive
S=c1[nH]nc(-c2ccccc2)n1/N=C/c1ccc(-c2ccccc2Cl)o1	active: 0.82 µM
COc1cccc(CNC(=O)CCS(=O)(=O)c2cccc3nonc23)c1	inconclusive: 8.2 µM [activator, partial curve, poor fit]
OCCNC(=S)NCCc1ccccc1	inactive
CN1c2ccccc2-c2nc(SCC(=O)Nc3ccccc3C(F)(F)F)ncc2S1(=O)=O	inconclusive: 11.2 µM [inhibitor, partial curve, poor fit]
NCCNC(=O)Cn1c(=O)c2c3c(sc2n(Cc2ccccc2)c1=O)CCCC3	inconclusive: 0.794 µM [inhibitor, single point]
COc1ccccc1CNC(=O)CCn1c(=O)c2ccccc2n(CC(=O)Nc2ccc(C)cc2C)c1=O	inactive
O=C(Nc1ccc(N2CCOCC2)cc1)c1ccc([N+](=O)[O-])cc1	inactive
Fc1ccc(-c2nnc(NC3=NCCCCC3)o2)cc1	active: 1 µM
O=C(Nc1nc2ccccc2s1)c1ccc2c(c1)OCO2	active: 2.51 µM

Compound	Potency
Cc1ccc(CN2CC(C(=O)Nc3ccc(C)c(S(=O)(=O)N4CCCCC4)c3)CC2=O)cc1 (configuration not stated)	inconclusive: 15.8 µM [inhibitor, single point]
O=C(Nc1ccc(OC(F)F)cc1)Nc1cccc(C(F)(F)F)c1	inconclusive: 25.1 µM [inhibitor, single point]
COc1ccc(/C=N/NC(=O)c2cccnc2)cc1CN1CCN(c2ccc(F)cc2)CC1	inconclusive: 35.5 µM [inhibitor, partial curve, poor fit]
COc1ccc(-c2cc(C(F)(F)F)n3nc(C(=O)NCc4ccco4)c(Cl)c3n2)cc1	inconclusive: 32.6 µM [inhibitor, single point]
CCOC(=O)C1(Cc2cccc(OC)c2)CCN(Cc2cccn2-c2nccs2)CC1	inconclusive: 4.47 µM [inhibitor, full curve]
O=C(c1cc(-c2ccc(Br)cc2)on1)N1CCCCCC1	inconclusive: 0.631 µM [inhibitor, full curve, poor fit]
O=C(O)c1cnn2c1NC(c1ccc(F)cc1)CC2C(F)(F)F (configuration not stated)	inactive
Cc1cccc(N(CC(=O)Nc2ccc(Br)cc2)S(C)(=O)=O)c1C	inconclusive: 17.8 µM [inhibitor, single point]
CC(=O)Oc1c(S(=O)(=O)c2ccc(C)cc2)c(C)nn1C(C)(C)C	inconclusive: 20 µM [inhibitor, single point]
Cc1ccccc1CNC(=O)Cc1ccccc1[N+](=O)[O-]	inconclusive: 29.1 µM [activator, single point]
Cc1nc(CC(=O)Nc2cccc(C)c2C)cs1	inactive
Cc1ccnc(NC(=O)CCCc2ccc(N(CCCl)CCCl)cc2)n1	inconclusive: 6.31 µM [inhibitor, partial curve]
CCCC=Cc1ccc(CN2C(CC(C)C)C(=O)N(Cc3cn(CCC4OCCO4)nn3)CCS2(=O)=O)cc1 (configuration not stated)	inconclusive: 0.025 µM [activator, full curve, poor fit]
COc1ccc(NC(=O)CCCn2c(=O)[nH]c3ccccc3c2=O)cc1	inconclusive: 0.231 µM [inhibitor, single point]
O=[N+]([O-])c1ccc(N2CCN(C(=S)Nc3ccc(F)cc3F)CC2)cc1	inconclusive: 2.82 µM [inhibitor, full curve]
CCn1c(SCC(=O)Nc2ccc3c(c2)oc2ccccc23)nnc1-c1ccc(N)cc1	inconclusive: 1.64 µM [inhibitor, partial curve, poor fit]
Cc1cc(Cl)ccc1OCCCC(=O)NCc1cccs1	inconclusive: 29.1 µM [inhibitor, single point]
O=C(c1ccc(CS(=O)Cc2ccccc2Cl)o1)N1CCN(c2ccccn2)CC1 (configuration not stated)	inconclusive: 15.8 µM [inhibitor, single point]
COc1ccc(NC(=O)C(C)N(c2ccc(C)cc2)S(C)(=O)=O)c(OC)c1 (configuration not stated)	inconclusive: 1.26 µM [inhibitor, single point]
CC(C)(C)C(=O)Nc1ccc(/C=C/C(=O)c2ccco2)cc1	inconclusive: 5.01 µM [inhibitor, single point]
Cc1ccc(CSCC(=O)N2CCN(c3ccc(F)cc3)CC2)cc1	inconclusive: 29.1 µM [inhibitor, single point]
Cc1cccc(C(=O)OC(C)CN2CCOCC2)c1 (configuration not stated)	inconclusive: 1.26 µM [activator, single point]
c1ccc2[nH]c(SCc3cn4ccccc4n3)nc2c1	inactive

A different layout for part of the listing above:
Compound,Potency
Cc1ccnc(NC(=O)CCCc2ccc(N(CCCl)CCCl)cc2)n1,"inconclusive: 6.31 µM [inhibitor, partial curve]"
CCCC=Cc1ccc(CN2C(CC(C)C)C(=O)N(Cc3cn(CCC4OCCO4)nn3)CCS2(=O)=O)cc1 (configuration not stated),"inconclusive: 0.025 µM [activator, full curve, poor fit]"
COc1ccc(NC(=O)CCCn2c(=O)[nH]c3ccccc3c2=O)cc1,"inconclusive: 0.231 µM [inhibitor, single point]"

Further entries follow.

Compound	Potency
COc1cccc(NC(=O)CN(C)CC(=O)Nc2ccc(Br)cc2)c1	inactive
O=C(CN1CCC(NC(=O)c2ccccc2)CC1)NCc1ccccc1F	inconclusive: 0.164 µM [inhibitor, single point]
CCCCN(CC)CCNC(=O)c1cc2c(-c3ccc(Cl)cc3)nn(C)c2s1	inconclusive: 25.1 µM [inhibitor, single point]
C(=N\c1nc2ccccc2n1CCN1CCCCC1)/c1ccc2c(c1)OCO2	inconclusive: 5.01 µM [activator, full curve]
FC(F)Oc1ccc(-c2csc(NNC3=NCCCCC3)n2)cc1	inconclusive: 22.4 µM [inhibitor, single point]
CCOC(=O)c1ccc(Oc2cc(C)nc(Cl)n2)cc1	inactive
CCNc1nc(CN2CCCCC2)nc2scc(-c3ccccc3)c12	inconclusive: 31.6 µM [inhibitor, single point]
O=C(CSc1nc(-c2ccccc2)nc2c1CCCC2)c1ccc(F)cc1	inactive
O=C(Cc1cccs1)Nc1cccc(-c2nc3cc4ccccc4cc3[nH]2)c1	inconclusive: 11.2 µM [inhibitor, partial curve, poor fit]
COc1cc(Cl)ccc1Nc1ncc(C(=O)N2CCN(c3ccccc3OC)CC2)c2ccccc12	inconclusive: 12.6 µM [inhibitor, partial curve, poor fit]
COCC(=O)Nc1cc([N+](=O)[O-])ccc1C	inconclusive: 31.6 µM [activator, single point]
COc1ccccc1Nc1cc(C(=O)NCCCN(C)c2ccccc2)c2ccccc2n1	inconclusive: 35.5 µM [inhibitor, single point]
CCCN1CCN(C(=O)CN2C(=O)COc3ccc(S(=O)(=O)N(CC)CC)cc32)CC1	inactive
COc1ccccc1C(=O)NC(CCSC)C(=O)NCCCSc1ccccc1 (configuration not stated)	inconclusive: 1.26 µM [activator, single point]
COc1cccc(CNC(=O)c2ccc(Cn3c(SCc4ccccc4)nc4cccnc43)cc2)c1	inconclusive: 35.5 µM [inhibitor, single point]
Nc1nc(SCC(=O)Nc2ccc(OC(F)(F)F)cc2)[nH]c(=O)c1NC(=O)c1ccc(Br)o1	inconclusive: 11.2 µM [activator, single point]
COc1ccccc1NC(=O)Cn1nnc(-c2ccccc2NS(=O)(=O)c2ccccc2)n1	inconclusive: 12.6 µM [inhibitor, single point]
CCOC(=O)C1=C(N)n2c(s/c(=C\c3cccs3)c2=O)=C(C(=O)OCC)C1c1cccs1 (configuration not stated)	inconclusive: 3.55 µM [inhibitor, full curve, poor fit]
c1ccc2c(c1)CC1CNCc3cccc(c31)S2 (configuration not stated)	inconclusive: 29.1 µM [inhibitor, single point]
CCOC(=O)c1cc2occc2n1CC(=O)N1CCCc2ccccc21	inconclusive: 35.5 µM [inhibitor, partial curve, poor fit]
Cc1ccc(C(=O)N2CCC(c3c[nH]c4ccccc34)(c3c[nH]c4ccccc34)CC2)cc1	inconclusive: 4.47 µM [inhibitor, partial curve]
